# The campaign covered roughly 340,000 compounds. About 6,200 (1.8%) were called active. This list was built around the results that the source calls inconclusive (neither active nor inactive); the mix of calls is not that of the screen. Calls come from the whole dose curve; as a rule, active = well fitted activation curve with a large enough effect; inconclusive = small, poorly fitted or top-dose-only effect; inactive = no such curve, though single readings can be large or run the other way. Where the call is inconclusive, the potency comes from a doubtful curve fit.
# Experiment: A quantitative high throughput screen for small molecules that induce DNA re-replication in SW480 colon adenocarcinoma cells. For re-replication activation: % of control where 0% means no effect. Note: nearly all actives have a fitted effect of over 55% in size.
# Details: Hoechst DNA content imaging, 48 h; re-replication activation: at 46.1 µM (top of the series) unless noted
# Summary of the method: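 DNA re-replication was detected as more nuclei of elevated Hoechst intensity after 48 hr exposure to compound (23 nL pinned per well of 250 cells).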
# Potency is the fitted concentration of half-maximal effect.
SMILES,Potency,re-replication activation
Cc1ccc(S(=O)(=O)N2CCCCC2)cc1NC(=O)CSc1nnc(N)s1,inactive,
C#CC[N+]1(CC#Cc2cccc(C)c2)CCCCC1,inactive,
COc1ccc(CN2CCNC(=O)C2CC(=O)NCC2CCOCC2)cc1C (stereo not given),inactive,
COc1cccc(/C=N/Nc2ccc([N+](=O)[O-])cn2)c1O,active: 1.16 µM,
O=C(CCS(=O)(=O)c1ccccc1)Nc1nc(-c2cccs2)cs1,"inconclusive: 25.9 µM [activator, single point]",
CCC(SC1=N/C(=C/c2ccccc2)C(=O)N1c1ccccc1)C(=O)Nc1cc(C)on1 (stereo not given),"inconclusive: 32.6 µM [activator, partial curve, poor fit]",
CCN(CC)S(=O)(=O)c1cccc(NC(=O)c2ccc(S(=O)(=O)N3CCCC3)cc2)c1,"inconclusive: 14.6 µM [activator, partial curve, poor fit]",
COc1ccc(C=O)cc1OS(=O)(=O)c1ccccc1[N+](=O)[O-],"inconclusive: 20.6 µM [activator, single point]",
CCOc1ccc(NC(=O)[C@@H]2CCCN2C(=O)c2cccs2)cc1S(=O)(=O)N1CCCCC1,inactive,
CCc1cc(=O)oc2cc(C)cc(OCC(=O)NC(Cc3ccc(Cl)cc3)C(=O)O)c12 (stereo not given),"inconclusive: 0.82 µM [activator, full curve, poor fit]",
CNCc1c(OCc2ccccc2)ccc2ccccc12,inactive,
O=C(c1ccco1)N1CCCN(Cc2nc(-c3cccs3)no2)CC1,"inconclusive: 23.1 µM [activator, partial curve, poor fit]",
Oc1ccc(N=Nc2nccs2)c(O)c1,"inconclusive: 2.91 µM [activator, full curve, poor fit]",
Cc1ccnc(NC(=O)c2ccccc2NC(=O)C(C)(C)C)c1,active: 16.4 µM,
CC(=O)Nc1ccc(NC(=O)COC(=O)c2ccccc2C(=O)c2ccccc2)cc1,"inconclusive: 29.1 µM [activator, single point]",
CC1CCN(S(=O)(=O)c2ccc(C(=O)Nc3nnc(-c4ccco4)o3)cc2)CC1,"inconclusive: 16.4 µM [activator, single point]",
COc1ccc(S(=O)(=O)Nc2cc3[nH]c(=O)oc3cc2C)cc1,"inconclusive: 29.1 µM [activator, single point]",
O=C(COC(=O)c1ccccc1Br)Nc1ccc(F)cc1,inactive,
O=C(CSc1ncc(-c2ccccc2)[nH]1)Nc1ccccc1,inactive,
COc1ccc(-c2cc(C(F)F)n3ncc(C(=O)n4ccnc4C)c3n2)cc1,,inconclusive: 109% [activator]
CC(C)(C)c1ccc(C(=O)CCCSC2=C(C#N)C(c3ccco3)C3=C(CCCC3=O)N2)cc1 (stereo not given),"inconclusive: 5.17 µM [activator, partial curve]",
COc1ccc(OCCC(=O)N2CCN(C)CC2)cc1,"inconclusive: 11.6 µM [activator, single point]",
CCCN(CC(=O)Nc1ccccc1OC)C(=O)CSC(=S)N1CCCC1,inactive,
O=C(NCc1ccccc1CN1CCCC1)c1ccc(Cl)c(S(=O)(=O)N2CCCC2)c1,"inconclusive: 10.3 µM [activator, partial curve, poor fit]",

SMILES,Potency,re-replication activation
COCCn1c(=S)[nH]c2sc3c(c2c1=O)CCC(C)C3 (stereo not given),"inconclusive: 23.1 µM [activator, single point]",
COC(=O)CSc1nc(-c2ccccc2)c2c(c1C#N)CCCC2,"inconclusive: 20.6 µM [activator, single point]",
COC(=O)c1sccc1NC(=S)Nc1ccccc1,"inconclusive: 0.92 µM [activator, full curve, poor fit]",
COc1cc(OC)cc(C(=O)NC(=S)N2CCCCC2c2cccnc2)c1 (stereo not given),"inconclusive: 23.1 µM [activator, single point]",
CCC(=NCc1ccccc1)c1c(C(F)(F)F)[nH]n(-c2nc3ccccc3s2)c1=O,inactive,
O=C(N/N=C/c1c(Cl)[nH]c2ccccc12)c1sc2ccccc2c1Cl,"inconclusive: 18.4 µM [activator, single point]",
COc1cc(OC)cc(C(=O)NNC(=S)Nc2ccc(S(N)(=O)=O)cc2)c1,"inconclusive: 25.9 µM [activator, partial curve, poor fit]",
CCN1CCCC1CNCc1ccc(OCc2ccc(Cl)nc2)c(OC)c1 (stereo not given),inactive,
O=C(c1ccc2[nH]c(=O)c(=O)[nH]c2c1)N1CCN(c2ccccc2)CC1,inactive,
O=C(c1ccco1)n1c(=S)nc2ccccn21,inactive,
CCCn1nnnc1NCc1ccccc1OCc1ccc(F)cc1,"inconclusive: 29.1 µM [activator, single point]",
COc1ccc(OCC(=O)Nc2nc3ccc(NC(C)=O)cc3s2)cc1,inactive,
Cc1ccc(O)c(C(=O)/C=C/c2ccc3c(c2)OCCCO3)c1,"inconclusive: 20.6 µM [activator, partial curve, poor fit]",
O=C(NNc1ccccc1Cl)C(O)(c1cccc(C(F)(F)F)c1)c1cccc(C(F)(F)F)c1,"inconclusive: 29.1 µM [activator, single point]",
Cc1c(C(=O)N2CCN(S(C)(=O)=O)CC2)oc2ccccc12,inactive,
Cc1ccc(S(=O)(=O)N2CCN(C(=O)c3ccc(N4CCC(C)CC4)c([N+](=O)[O-])c3)CC2)cc1,inactive,
NC(=O)c1c(N)sc2c1CCCC2,inactive,
CCOc1ccc(S(=O)(=O)n2c([N+](=O)[O-])cnc2C)c(C)c1C,"inconclusive: 29.1 µM [activator, single point]",
Cc1cc(OCC(O)CNC(C)c2ccccc2)ccc1C(C)C (stereo not given),"inconclusive: 29.1 µM [activator, single point]",
Cc1ccc(C2C3=C(CC(C)(C)CC3=O)N=C3c4ccccc4C(=O)C32)cc1 (stereo not given),"inconclusive: 0.731 µM [activator, full curve, poor fit]",
Cc1cc(C)c2c(N)c(C(=O)N3CCc4ccccc4C3)sc2n1,"inconclusive: 23.1 µM [activator, single point]",
Cc1ccc(S(=O)(=O)Cc2ccc(C(=O)NCCc3ccccc3)o2)cc1,"inconclusive: 0.517 µM [activator, full curve, poor fit]",
CSc1ccc(CNC(=O)C(C)n2nc(C)c3c(C)n(-c4ccccc4)nc3c2=O)cc1 (stereo not given),"inconclusive: 29.1 µM [activator, partial curve, poor fit]",
COCC(C)NC(=O)c1ccccc1[N+](=O)[O-] (stereo not given),"inconclusive: 0.13 µM [activator, full curve, poor fit]",

# Gathered by group, those above containing a cyano group (2)
SMILES,Potency,re-replication activation
CC(C)(C)c1ccc(C(=O)CCCSC2=C(C#N)C(c3ccco3)C3=C(CCCC3=O)N2)cc1 (stereo not given),"inconclusive: 5.17 µM [activator, partial curve]",
COC(=O)CSc1nc(-c2ccccc2)c2c(c1C#N)CCCC2,"inconclusive: 20.6 µM [activator, single point]",

# Additional compounds follow:

SMILES,Potency,re-replication activation
CCCN=C1N(CC)C[C@@H]2[C@@H]3C(=O)N(C)C(=O)[C@@H]3[C@](C)(C(=O)OC)N12,inactive,
Cc1cc(NC(=O)CNCC(c2ccccc2)N(C)C)c([N+](=O)[O-])cc1C (stereo not given),inactive,
Cc1ccc(Cl)cc1N1CCN(C(=O)C(=O)N2CCCCC2)CC1,inactive,
Cc1ccc(/C=N/Nc2ccc3ccccc3n2)o1,"inconclusive: 29.1 µM [activator, single point]",
CCOC(=O)NC(C(Cl)(Cl)Cl)S(=O)(=O)c1ccccc1 (stereo not given),"inconclusive: 18.4 µM [activator, single point]",
Cc1cc(C)c(C)c(N=Nc2nc3ccccc3n2C)c1C,"inconclusive: 18.4 µM [activator, single point]",
O=C(NCCCN1CCOCC1)NC1CCCCC1,"inconclusive: 2.59 µM [activator, partial curve, poor fit]",
OCCCn1c(C2CCCN2c2nc(-c3ccc(F)cc3)cs2)nc2cc(C(F)(F)F)ccc21 (stereo not given),inactive,
Cc1ccnc(NC(=O)Nc2ccc3c(c2)N(C)C(=O)CS3)c1,"inconclusive: 29.1 µM [activator, single point]",
CC(=O)Oc1ccc2c(C)c(CC(=O)N3CCN(C(=O)C4COc5ccccc5O4)CC3)c(=O)oc2c1C (stereo not given),"inconclusive: 0.461 µM [activator, full curve, poor fit]",
CCc1ccc(Nc2ccc(C(N)=O)cc2[N+](=O)[O-])cc1,"inconclusive: 0.58 µM [activator, full curve, poor fit]",
C/C(=N\Nc1cc(C)nc(-c2ccccc2O)n1)c1ccccc1O,"inconclusive: 18.4 µM [activator, single point]",
CN(C)C(=O)c1ccc(NC(=O)c2cccc(S(=O)(=O)N3CCCc4ccccc43)c2)cc1,inactive,
Cc1ccc(S(=O)(=O)n2c(C)nc3ccccc32)cc1,"inconclusive: 0.461 µM [activator, full curve, poor fit]",
CN(C)CC(CCC(CN(C)C)C(=O)c1ccccc1)C(=O)c1ccccc1 (stereo not given),"inconclusive: 2.31 µM [activator, single point]",
Cc1ccccc1N(C(=O)c1snc(C(N)=O)c1N)C(C(=O)NC1CCCC1)c1ccco1 (stereo not given),inactive,
Cc1cc(C)nc(NC(=O)Nc2ccccc2C(F)(F)F)n1,active: 16.4 µM,
Cc1ccc(C)c2[nH]c(=O)c(CCNC(=O)c3ccc(S(=O)(=O)N4CCCC4)cc3)cc12,inactive,
O=C(N/N=C/c1ccc(Cl)cc1Cl)Nc1ccccc1,"inconclusive: 16.4 µM [activator, partial curve, poor fit]",
CC(C)[C@H](NC(=O)OC(C)(C)C)c1nnc(SCc2cccc(F)c2)o1,"inconclusive: 23.1 µM [activator, partial curve, poor fit]",
O=[N+]([O-])c1nn(-c2ccccc2)n(O)c1=NC1CCN(Cc2ccccc2)CC1,active: 10.3 µM,
CCn1cc(S(=O)(=O)Nc2ccc(C)c(Cl)c2)cn1,inactive,

# Reference: PubChem BioAssay AID624297 (National Center for Advancing Translational Sciences (NCATS), 2012)
